These are yes or no findings as the source states them, for the method shown. Binding calls can cover weak binding; strength is not graded here.
Molecular target: purified human monomeric 4-1BB (human)
Assay: SPR

binding	Binder
binds	v28726 (antibody, human IgG1, kappa, L234A L235A, V domains shown) VH: EVQLVESGGGLIQPGGSLRLSCAVSGFSLTTYAISWVRQAPGKGLEWLGIIWPGGGTNYADSVKGRFTISKDNSKNTLYLQMNSLRAEDTAVYYCARGAGTWYFDVWGQGTLVTVSS VL: DIQMTQSPSSLSASVGDRVTITCSASQGISNYLNWYQQKPGKTVKLLIYYTSSLHSGVPSRFSGSGSGTDYTLTISSLQPEDIATYYCQQYSKFPWTFGQGTKLEIKR
binds	v28727 (antibody, human IgG1, kappa, L234A L235A, V domains shown) VH: EVQLVESGGGLIQPGGSLRISCAVSGFSLTTYAISWVRQAPGKGLEWLGIIWPGGGTNYADSLKGRLTISKDNSKNTVYLQMNSLRTEDTAVYYCARGAGTWYFDVWGQGTLVTVSS VL: DIQMTQSPSSLSASVGDRVTITCSASQGISNYLNWYQQKPGKAPKLLIYYTSSLHSGVPSRFSGSGSGTDFTFTISSLQPEDIATYYCQQYSKFPWTFGQGTKVEIKR
binds	v28728 (antibody, human IgG1, kappa, L234A L235A, V domains shown) VH: EVQLVESGGGLIQPGGSLRISCAVSGFSLTTYAISWVRQAPGKGLEWLGIIWPGGGTNYADSLKGRLTISKDNSKNTVYLQMNSLRTEDTAVYYCARGAGTWYFDVWGQGTLVTVSS VL: DIQMTQSPSSLSASVGDRVTITCSASQGISNYLNWYQQKPGKAPKLLIYYTSSLHSGVPSRFSGSGSGTDYTLTISSLQPEDIATYYCQQYSKFPWTFGQGTKLEIKR
binds	v28730 (antibody, human IgG1, kappa, L234A L235A, V domains shown) VH: EVQLVESGGGLIQPGGSLRISCAVSGFSLTTYAISWVRQAPGKGLEWLGIIWPGGGTNYADSLKGRLTISKDNSKNTVYLQMNSLRTEDTAVYYCARGAGTWYFDVWGQGTLVTVSS VL: DIQMTQSPSSLSASVGDRVTITCSASQGISNYLNWYQQKPGKTVKLLIYYTSSLHSGVPSRFSGSGSGTDYTLTISSLQPEDIATYYCQQYSKFPWTFGQGTKLEIKR
binds	v28704 (antibody, human IgG1, kappa, L234A L235A, V domains shown) VH: QVQLQESGPGLVKPSETLSITCTVSGFSLISYGVHWVRQPPGKGLEWLGVIWSGGSTDYNPSLKSRVTISKDTSKNQVSFKLSSLTAADTAIYYCARNPLTATVMDYWGQGTLVTVSS VL: DIQMTQSPSSLSASVGDRVTITCRASQNVGTNVAWYQQKPGKAPKALIYSASYRDSGVPSRFSGSGSGTDFTLTISSLQPEDFATYYCQQYNSYPLTFGGGTKVEIKR
binds	v28713 (antibody, human IgG1, kappa, L234A L235A, V domains shown) VH: QVQLQESGPGLVKPSETLSITCTVSGFSLISYGVHWVRQPPGKGLEWLGVIWSGGSTDYNPSLKSRVTISKDNSKNQVSFKLSSLTAADTAIYYCARNPLTATVMDYWGQGTLVTVSS VL: DIQMTQSPSSLSASVGDRVTVTCRASQNVGTNVAWYQQKPGKAPKALIYSASYRDSGVPSRFSGSGSGTDFTLTISSVQPEDLATYYCQQYNSYPLTFGGGTKLEIKR
binds	v28696 (antibody, human IgG1, kappa, L234A L235A, V domains shown) VH: QVQLQESGPGLVKPSETLSLTCTVSGFSLISYGVHWIRQPPGKGLEWIGVIWSGGSTDYNPSLKSRVTISVDTSKNQFSLKLSSVTAADTAVYYCARNPLTATVMDYWGQGTLVTVSS VL: DIQMTQSPSSLSASVGDRVTITCRASQNVGTNVAWYQQKPGKAPKALIYSASYRDSGVPSRFSGSGSGTDFTLTISSLQPEDFATYYCQQYNSYPLTFGGGTKVEIKR
binds	v28711 (antibody, human IgG1, kappa, L234A L235A, V domains shown) VH: QVQLQESGPGLVKPSETLSITCTVSGFSLISYGVHWVRQPPGKGLEWLGVIWSGGSTDYNPSLKSRVTISKDNSKNQVSFKLSSLTAADTAIYYCARNPLTATVMDYWGQGTLVTVSS VL: DIQMTQSPSSLSASVGDRVTITCRASQNVGTNVAWYQQKPGKAPKALIYSASYRDSGVPSRFSGSGSGTDFTLTISSLQPEDFATYYCQQYNSYPLTFGGGTKVEIKR
binds	v28706 (antibody, human IgG1, kappa, L234A L235A, V domains shown) VH: QVQLQESGPGLVKPSETLSITCTVSGFSLISYGVHWVRQPPGKGLEWLGVIWSGGSTDYNPSLKSRVTISKDTSKNQVSFKLSSLTAADTAIYYCARNPLTATVMDYWGQGTLVTVSS VL: DIQMTQSPSSLSASVGDRVTVTCRASQNVGTNVAWYQQKPGKAPKALIYSASYRDSGVPSRFSGSGSGTDFTLTISSVQPEDLATYYCQQYNSYPLTFGGGTKLEIKR
binds	v28712 (antibody, human IgG1, kappa, L234A L235A, V domains shown) VH: QVQLQESGPGLVKPSETLSITCTVSGFSLISYGVHWVRQPPGKGLEWLGVIWSGGSTDYNPSLKSRVTISKDNSKNQVSFKLSSLTAADTAIYYCARNPLTATVMDYWGQGTLVTVSS VL: DIQMTQSPSSLSASVGDRVTVTCRASQNVGTNVAWYQQKPGKAPKALIYSASYRDSGVPSRFSGSGSGTDFTLTISSVQPEDFATYYCQQYNSYPLTFGGGTKLEIKR
binds	v28707 (antibody, human IgG1, kappa, L234A L235A, V domains shown) VH: QVQLQESGPGLVKPSETLSITCTVSGFSLISYGVHWVRQPPGKGLEWLGVIWSGGSTDYNPSLKSRVTISKDNSKNQVSFKLSSLTAADTAIYYCARNPLTATVMDYWGQGTLVTVSS VL: DIQMTQSPSSLSASVGDRVTITCRASQNVGTNVAWFQQKPGKAPKSLIYSASYRDSGVPSRFSGSGSGTDFTLTISSLQPEDFATYYCQQYNSYPLTFGGGTKVEIKR
binds	v28697 (antibody, human IgG1, kappa, L234A L235A, V domains shown) VH: QVQLQESGPGLVKPSETLSLTCTVSGFSLISYGVHWIRQPPGKGLEWIGVIWSGGSTDYNPSLKSRVTISVDTSKNQFSLKLSSVTAADTAVYYCARNPLTATVMDYWGQGTLVTVSS VL: DIQMTQSPSSLSASVGDRVTVTCRASQNVGTNVAWYQQKPGKAPKALIYSASYRDSGVPSRFSGSGSGTDFTLTISSVQPEDFATYYCQQYNSYPLTFGGGTKLEIKR
binds	v28703 (antibody, human IgG1, kappa, L234A L235A, V domains shown) VH: QVQLQESGPGLVKPSETLSITCTVSGFSLISYGVHWVRQPPGKGLEWLGVIWSGGSTDYNPSLKSRVTISKDTSKNQVSFKLSSLTAADTAIYYCARNPLTATVMDYWGQGTLVTVSS VL: DIQMTQSPSSLSASVGDRVTITCRASQNVGTNVAWFQQKPGKAPKSLIYSASYRDSGVPSRFSGSGSGTDFTLTISSLQPEDFATYYCQQYNSYPLTFGGGTKVEIKR
binds	v28701 (antibody, human IgG1, kappa, L234A L235A, V domains shown) VH: QVQLQESGPGLVKPSETLSLTCTVSGFSLISYGVHWVRQPPGKGLEWLGVIWSGGSTDYNPSLKSRVTISKDTSKNQFSLKLSSVTAADTAVYYCARNPLTATVMDYWGQGTLVTVSS VL: DIQMTQSPSSLSASVGDRVTVTCRASQNVGTNVAWYQQKPGKAPKALIYSASYRDSGVPSRFSGSGSGTDFTLTISSVQPEDFATYYCQQYNSYPLTFGGGTKLEIKR
binds	v28702 (antibody, human IgG1, kappa, L234A L235A, V domains shown) VH: QVQLQESGPGLVKPSETLSLTCTVSGFSLISYGVHWVRQPPGKGLEWLGVIWSGGSTDYNPSLKSRVTISKDTSKNQFSLKLSSVTAADTAVYYCARNPLTATVMDYWGQGTLVTVSS VL: DIQMTQSPSSLSASVGDRVTVTCRASQNVGTNVAWYQQKPGKAPKALIYSASYRDSGVPSRFSGSGSGTDFTLTISSVQPEDLATYYCQQYNSYPLTFGGGTKLEIKR
binds	v28705 (antibody, human IgG1, kappa, L234A L235A, V domains shown) VH: QVQLQESGPGLVKPSETLSITCTVSGFSLISYGVHWVRQPPGKGLEWLGVIWSGGSTDYNPSLKSRVTISKDTSKNQVSFKLSSLTAADTAIYYCARNPLTATVMDYWGQGTLVTVSS VL: DIQMTQSPSSLSASVGDRVTVTCRASQNVGTNVAWYQQKPGKAPKALIYSASYRDSGVPSRFSGSGSGTDFTLTISSVQPEDFATYYCQQYNSYPLTFGGGTKLEIKR
binds	v28698 (antibody, human IgG1, kappa, L234A L235A, V domains shown) VH: QVQLQESGPGLVKPSETLSLTCTVSGFSLISYGVHWIRQPPGKGLEWIGVIWSGGSTDYNPSLKSRVTISVDTSKNQFSLKLSSVTAADTAVYYCARNPLTATVMDYWGQGTLVTVSS VL: DIQMTQSPSSLSASVGDRVTVTCRASQNVGTNVAWYQQKPGKAPKALIYSASYRDSGVPSRFSGSGSGTDFTLTISSVQPEDLATYYCQQYNSYPLTFGGGTKLEIKR
binds	v28683 (antibody, human IgG1, kappa, L234A L235A, V domains shown) VH: EVQLVESGGGLVQPGGSLRLSCAASGFTFSEFGMHWVRQAPGKGLEWVSYISSGGSTIYYADSVKGRFTISRDNAKNSLYLQMNSLRAEDTAVYYCARDWVDYWGQGTLVTVSS VL: EIVLTQSPATLSLSPGERATLSCKASENVGSYVSWYQQKPGQAPRLLIYGASNRYTGIPARFSGSGSGTDFTLTISSLEPEDFAVYYCGQSYSYPLTFGGGTKVEIKR
binds	v28685 (antibody, human IgG1, kappa, L234A L235A, V domains shown) VH: EVQLVESGGGLVQPGGSLRLSCAASGFTFSEFGMHWVRQAPGKGLEWVSYISSGGSTIYYADSVKGRFTISRDNAKNSLYLQMNSLRAEDTAVYYCARDWVDYWGQGTLVTVSS VL: EIVMTQSPATLSLSPGERVTLSCKASENVGSYVSWYQQKPGQAPRLLIYGASNRYTGVPARFSGSGSGTDFTLTISSVEPEDFAVYYCGQSYSYPLTFGGGTKLELKR
binds	v28687 (antibody, human IgG1, kappa, L234A L235A, V domains shown) VH: EVQLVESGGGLVQPGGSLRLSCAASGFTFSEFGMHWVRQAPGKGLEWVAYISSGGSTIYYADSVKGRFTISRDNAKNSLYLQMNSLRAEDTAVYYCARDWVDYWGQGTLLTVSS VL: EIVLTQSPATLSLSPGERATLSCKASENVGSYVSWYQQKPGQAPRLLIYGASNRYTGIPARFSGSGSGTDFTLTISSLEPEDFAVYYCGQSYSYPLTFGGGTKVEIKR
binds	v28688 (antibody, human IgG1, kappa, L234A L235A, V domains shown) VH: EVQLVESGGGLVQPGGSLRLSCAASGFTFSEFGMHWVRQAPGKGLEWVAYISSGGSTIYYADSVKGRFTISRDNAKNSLYLQMNSLRAEDTAVYYCARDWVDYWGQGTLLTVSS VL: EIVLTQSPATLSLSPGERATLSCKASENVGSYVSWYQQKPGQAPRLLIYGASNRYTGVPARFSGSGSGTDFTLTISSLEPEDFAVYYCGQSYSYPLTFGGGTKVEIKR
binds	v28686 (antibody, human IgG1, kappa, L234A L235A, V domains shown) VH: EVQLVESGGGLVQPGGSLRLSCAASGFTFSEFGMHWVRQAPGKGLEWVSYISSGGSTIYYADSVKGRFTISRDNAKNSLYLQMNSLRAEDTAVYYCARDWVDYWGQGTLVTVSS VL: EIVMTQSPATLSLSPGERVTLSCKASENVGSYVSWYQQKPGQAPRLLIYGASNRYTGVPARFSGSGSGTDFTLTISSVEPEDLAVYYCGQSYSYPLTFGGGTKLELKR
